Results reported in patent US4232014A, “Aminoalkylindans and use as hypotensive agents” (Marion Laboratories, Inc., priority 1979, dated 1980).

Test system: Desoxycorticosterone Hypertensive Rats
Assay: Cardiovascular activity (blood pressure and heart rate) in desoxycorticosterone hypertensive rats
Parameters: species or system male Charles River rats
Conditions: rat, in vivo
Method: The indirect measurements of blood pressure and heart rate were determined in male Charles River rats made hypertensive (systolic blood pressure >159 mm Hg) by subcutaneously implanting a wax-formulated pellet containing 10 mg of desoxycorticosterone acetate. Systolic blood pressure was measured in the caudal arteries of prewarmed (40° C.), unanesthetized, restrained animals by a pneumatic pulse transducer placed distal to an automated tail pressure cuff and was recorded on a physiograph. Heart rate was determined from the amplified pulse waves recorded during the blood pressure measurements. Prior to the actual experiments, animals were accustomed to the measurement handling procedure several times during the preceding weeks.
Control systolic blood pressure and heart rates were determined in a group of usually six hypertensive rats on each day. A compound for evaluation was administered by intraperitoneal injection either in solution or as a suspension at 24 hr. intervals following injection. Mean values of the group for these parameters at a particular measurement period were calculated, and then the mean difference from control, along with its associated standard error, was calculated for each period. The statistical significance of the changes produced by a compound was tested by an analysis of variance and the Newman-Keuls a posteriori test when F was significant. […]

N=C(N)NCCN1CCCCCCC1 [Guanethidine, reference compound]
change in mean systolic blood pressure from control levels: significant depressions in mean systolic blood pressure from control levels
